Test results: PubChem BioAssay AID2685 (National Center for Advancing Translational Sciences (NCATS), 2010)
The campaign covered roughly 320,000 compounds. About 2,100 (0.66%) were called active. Inconclusive means that the source gave no clear call. Such entries were picked first, then a sample of the others. Calls follow the shape of the dose curve; as a rule, active = well fitted inhibition curve with a large enough effect in the signal ratio, with a control signal flat (not every such curve was filed as active); inconclusive = small, poorly fitted or top-dose-only effect, or effect the other way, or a change in a side signal; inactive = flat fitted curve, though single readings scatter; the % refers to the signal ratio. Potencies of inconclusive entries are doubtful fits and often do not repeat.

Test: qHTS Assay for Lipid Storage Modulators in Drosophila S3 Cells
Details: BODIPY lipid droplet fluorescence, 18-24 h, cells fed with added oleic acid; lipid storage change, negative = inhibition: at 46.1 µM (top of the series) unless noted
How it was run: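 Drosophila S3 cells loaded with oleic acid (400 uM, as added) and compounds at several concentrations; lipid droplets imaged by 488-nm laser-scanning cytometry, 500–530 nm intensity and object ratio to cell channel. Percent activity normalized to 20 uM Triacsin C.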
% is scaled to controls: 0 for no effect and ±100 for the full control effect; potency is read from the fitted curve at half-maximal effect.

| Compound | lipid storage change, negative = inhibition | Potency |
| --- | --- | --- |
| CC(=O)Nc1cccc(-c2csc(Nc3cccc(C)n3)n2)c1 | inconclusive: -39.7% |  |
| C#CCSc1nsc(SCC#C)c1C#N |  | inconclusive: 10.3 µM [falling, single point] |
| O=C(OCc1ccc(-c2ccccc2)cc1)c1cccc(O)c1 |  | inconclusive: 0.231 µM [falling, full curve, poor fit] |
| COc1cccc(C(=O)Nc2c3c(nn2-c2ccc([N+](=O)[O-])cc2)CS(=O)(=O)C3)c1 |  | inconclusive: 29.1 µM [falling, single point] |
| Cc1cc(C)c(C(=O)C(C)OC(=O)C2=COCCO2)cc1C (stereo not drawn) |  | inconclusive: 20.6 µM [activator, partial curve] |
| Cc1onc(-c2ccccc2Cl)c1C(=O)Nc1cccc(S(=O)(=O)NC2=NCCC2)c1 | inconclusive |  |
| O=C(CN1C(=O)NC(Cc2c[nH]c3ccccc23)C1=O)Nc1cccc(S(=O)(=O)N2CCCCCC2)c1 (stereo not drawn) | inconclusive: 7.63% |  |
| CCC1CCCCN1C(=O)c1ccccc1OC1CCN(S(C)(=O)=O)CC1 (stereo not drawn) |  | inconclusive: 0.0058 µM [falling, full curve, poor fit] |
| CC1CCN(C(=O)COC(=O)[C@H](C)NS(=O)(=O)/C=C/c2ccccc2)CC1 | inconclusive: -147% |  |
| CCN1CCN(Cc2c(O)ccc3c(=O)c(-c4ccc(OC)c(OC)c4)c(C(F)(F)F)oc23)CC1 | inconclusive: 31.2% |  |
| CC(C)(C)c1cc(C(F)(F)F)c(C#N)c(=O)[nH]1 | inconclusive: 0.0878% |  |
| CCOc1ccccc1OCC(=O)Nc1ccc2[nH]c(=O)[nH]c2c1 | inconclusive: 4.57% |  |
| COc1ccc(Cn2nnnc2C(c2cc3cc(C)ccc3[nH]c2=O)N2CCOCC2)cc1 (stereo not drawn) | inconclusive: 9.8% |  |
| O=S(=O)(Nc1nc2ccccc2nc1Nc1cccc(S(=O)(=O)N2CCCCC2)c1)c1ccccc1 | inconclusive: 5.99% |  |
| Cc1ccc(NC(=O)CSc2ncn[nH]2)cc1S(=O)(=O)N1CCOCC1 | inconclusive: 26.5% |  |
| CCCN(C(=O)Cn1ncc2c([nH]c3ccccc32)c1=O)c1ccccc1C | inconclusive: 59.6% |  |
| Cc1nn(C(C)C)c(C)c1CN1CCC(C(=O)Nc2cccc(-c3cccc(F)c3)c2)CC1 | inconclusive: -19.9% |  |
| Cc1ccc(SCCN2CCC(NC(=O)OCc3ccccc3)CCC2=O)cc1 (stereo not drawn) | inconclusive: -4.11% |  |
| CC(=O)c1cccc(NC(=O)C(C)OC(=O)CCn2c(C)csc2=O)c1 (stereo not drawn) |  | inconclusive: 6.51 µM [falling, single point] |
| COc1ccc2c(c1)OC[C@H]1[C@H]2N2C(=O)c3cc(OC)c(OC)cc3NC(=O)[C@@]2(C)[C@H]1c1ccccc1 |  | inconclusive: 5.17 µM [falling, single point] |
| Cc1cccc(C)c1OC(=O)Cc1ccccc1[N+](=O)[O-] | inconclusive: 26% |  |
| O=C(COc1ccc(S(=O)(=O)Nc2ccccc2)cc1)NCc1ccccn1 | inconclusive: -52.5% |  |
| S=c1nc(-c2ccco2)[nH][nH]1 | inconclusive: -32.6% |  |
| O=C(Nc1cnccn1)c1csc2ccccc12 |  | inconclusive: 6.51 µM [rising, full curve, poor fit] |

| Compound | lipid storage change, negative = inhibition | Potency |
| --- | --- | --- |
| Fc1ccc(CN2CCN(C(c3ccccc3)c3ccccc3)CC2)cc1 |  | active: 16.4 µM |
| COc1ccc(/C=C2\Oc3cc(OCC(=O)N4CCC[C@H]4C(=O)O)ccc3C2=O)c(OC)c1OC |  | inconclusive: 0.58 µM [activator, single point] |
| CC(=O)Nc1ccc(S(=O)(=O)N2CCC(C(=O)Nc3nccs3)CC2)cc1 | inconclusive: 2.79% |  |
| COc1ccc(CCNC(=O)c2c[nH]c3ccc(F)cc3c2=O)cc1OC |  | inconclusive: 0.0046 µM [falling, full curve, poor fit] |
| C/C(Cl)=C\Cn1c(NCCCn2ccnc2)nc2c1c(=O)n(C)c(=O)n2C |  | inconclusive: 0.58 µM [activator, full curve] |
| CC(C)c1ccc(C2C(C#N)=C(N)Oc3c2oc(CO)cc3=O)cc1 (stereo not drawn) | inconclusive: 7.65% |  |
| CCCc1cc(=O)oc2c3c(c(Cl)cc12)OCN(CCCO)C3 | inconclusive: 10.6% |  |
| COc1cccc(-c2nnc(SCc3ccccn3)n2C)c1 | inconclusive: 45.1% |  |
| CC(C)c1[nH]nc2c1C(c1ccco1)C(C#N)=C(N)O2 (stereo not drawn) |  | inconclusive: 29.1 µM [falling, single point] |
| COc1ccc(CSc2nnc(N)s2)cc1F |  | inconclusive: 18.4 µM [activator, partial curve] |
| CC(C)COC(=O)N1CCN(S(=O)(=O)c2ccc3c(c2)CCC3)CC1 | inconclusive: 23.6% |  |
| O=C(C1CCC(=O)N(C2CC2)C1)N1CCN(c2ccccc2Cl)CC1 (stereo not drawn) |  | inconclusive: 0.116 µM [falling, full curve, poor fit] |
| CCOc1ccccc1NC(=O)CCCn1cc([N+](=O)[O-])cn1 | inconclusive: 2.3% |  |
| C=CCn1c(SCCOC)nc2c1c(=O)[nH]c(=O)n2C | inconclusive: 0.836% |  |
| O=C(NC1CCCCC1)n1c(=O)oc2ccccc21 | inconclusive: -0.597% |  |
| COC(=O)C1=C(C)N(C(C)C)C(=O)C1(NC(C)=O)C(F)(F)F (stereo not drawn) | inconclusive: -41.5% |  |
| C/C(N)=C(/C#N)C(=O)COC(=O)CSc1ccc2ccccc2c1 | inconclusive: 0.486% |  |
| Cn1cnnc1Sc1ccc(C(=O)OCC(=O)NCC(F)(F)F)cc1[N+](=O)[O-] | inconclusive: -2.1% |  |
| COc1ccccc1NC(=O)C(C)Sc1nnc2ccccn12 (stereo not drawn) |  | inconclusive: 0.517 µM [activator, full curve, poor fit] |
| CC(NCCN(C)C)C(=O)C12CC3CC(CC(C3)C1)C2 (stereo not drawn) | inconclusive: -22.5% |  |
| CN1CCN(C(=O)/C(=C/c2ccco2)NC(=O)c2ccccc2)CC1 |  | inconclusive: 0.58 µM [activator, single point] |
| COc1cc(C(=O)N(Cc2ccc(C)o2)C2CCS(=O)(=O)C2)cc(OC)c1OC (stereo not drawn) | inactive |  |
| O=C(NC1CCCC1)c1ccc(CS(=O)(=O)c2ccc(Cl)cc2)o1 | inconclusive: -18% |  |
| COc1ccccc1N1C(=O)CC(Sc2nc(C)cc(C)n2)C1=O (stereo not drawn) | inconclusive: -34.2% |  |

Filtered by structure: those above with a nitro group on carbon

| Compound | lipid storage change, negative = inhibition | Potency |
| --- | --- | --- |
| COc1cccc(C(=O)Nc2c3c(nn2-c2ccc([N+](=O)[O-])cc2)CS(=O)(=O)C3)c1 |  | inconclusive: 29.1 µM [falling, single point] |
| Cc1cccc(C)c1OC(=O)Cc1ccccc1[N+](=O)[O-] | inconclusive: 26% |  |
| CCOc1ccccc1NC(=O)CCCn1cc([N+](=O)[O-])cn1 | inconclusive: 2.3% |  |
| Cn1cnnc1Sc1ccc(C(=O)OCC(=O)NCC(F)(F)F)cc1[N+](=O)[O-] | inconclusive: -2.1% |  |
